# Data published in article PMC10746227.
# Protein sequences, listed by entry. Tags and fused reporters are not part of them.
# UniProt Q2FKN7: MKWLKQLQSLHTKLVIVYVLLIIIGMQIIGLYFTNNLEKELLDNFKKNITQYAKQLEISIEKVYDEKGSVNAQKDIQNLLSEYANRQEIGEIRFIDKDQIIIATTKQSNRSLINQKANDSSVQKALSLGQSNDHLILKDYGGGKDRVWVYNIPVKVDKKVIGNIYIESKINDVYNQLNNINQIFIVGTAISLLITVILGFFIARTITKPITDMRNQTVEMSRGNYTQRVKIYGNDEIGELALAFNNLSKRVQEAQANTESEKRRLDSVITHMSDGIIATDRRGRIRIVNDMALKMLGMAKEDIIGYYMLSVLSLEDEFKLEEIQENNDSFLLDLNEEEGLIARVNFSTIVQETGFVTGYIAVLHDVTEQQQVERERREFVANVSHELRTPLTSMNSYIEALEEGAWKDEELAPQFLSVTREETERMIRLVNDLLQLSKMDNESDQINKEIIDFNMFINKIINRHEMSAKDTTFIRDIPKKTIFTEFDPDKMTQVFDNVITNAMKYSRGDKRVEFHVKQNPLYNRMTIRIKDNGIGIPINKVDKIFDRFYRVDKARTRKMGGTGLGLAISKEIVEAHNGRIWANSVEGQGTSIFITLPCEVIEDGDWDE
# UniProt Q2FKN8: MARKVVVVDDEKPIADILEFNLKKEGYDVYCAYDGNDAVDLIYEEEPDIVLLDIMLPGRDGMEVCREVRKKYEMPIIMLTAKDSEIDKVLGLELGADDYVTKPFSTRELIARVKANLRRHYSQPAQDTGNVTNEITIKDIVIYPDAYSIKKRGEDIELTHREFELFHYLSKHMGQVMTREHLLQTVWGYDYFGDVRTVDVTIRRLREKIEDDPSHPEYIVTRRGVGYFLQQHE
# Results are given in words; binding and its absence hold for the method and conditions named. In cells and extracts the contact can be indirect. Some entries that bind do so weakly or less than the wild type.
# Assays:
# [1] = molecular target: WalK-LgBIT (native WalK) (S. aureus) (UniProt Q2FKN7); assay: split reporter; same cultures and read-out as a1, in the stationary phase (5 h)
# [2] = molecular target: WalK-LgBIT (native WalK) (S. aureus) (UniProt Q2FKN7); assay: split reporter; WalR-SmBIT (pSmBIT) and WalK-LgBIT (pLgBIT) alleles together in living S. aureus NRS384; LB with chloramphenicol, kanamycin and Nano-Glo substrate 1:5,000, 37°C, 96-well plate; OD600nm and light emission (RLU) read every 10 min over 8 h; lag and exponential phase
substance,measurement,setting,value
WalR-SmBIT (native WalR) (from UniProt Q2FKN8 1-233),binding,[1],no binding (condition: stationary phase (5 h))
same,binding,[2],binds
